# Source: publication PMC8310061
# The chains behind the UniProt entries cited, without tags or fusion partners.
# UniProt P75024: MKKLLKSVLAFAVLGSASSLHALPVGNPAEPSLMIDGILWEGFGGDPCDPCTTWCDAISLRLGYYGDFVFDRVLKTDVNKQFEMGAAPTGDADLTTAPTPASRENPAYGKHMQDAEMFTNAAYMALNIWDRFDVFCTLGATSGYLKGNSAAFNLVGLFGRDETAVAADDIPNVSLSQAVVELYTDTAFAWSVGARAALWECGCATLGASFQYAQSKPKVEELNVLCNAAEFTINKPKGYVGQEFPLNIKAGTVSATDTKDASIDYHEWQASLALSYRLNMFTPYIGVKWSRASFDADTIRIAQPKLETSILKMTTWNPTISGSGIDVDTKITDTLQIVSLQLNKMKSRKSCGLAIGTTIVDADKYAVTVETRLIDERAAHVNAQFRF
# No constants are given. Whether binding was seen depends on the method and setting. Some entries that bind do so weakly or less than the wild type.
# Assays:
# [1] = target: Chlamydia muridarum major outer membrane protein (MOMP) (C. muridarum) (UniProt P75024); assay: SDS-PAGE without heat and reducing agent, Western blot; purified MOMP-telodisk (lipids and telodendrimer, no scaffold protein); Western blot in the absence of heat and reducing agent; both purified
# [2] = target: Chlamydia muridarum major outer membrane protein (MOMP) (C. muridarum) (UniProt P75024); assay: SDS-PAGE without heat and reducing agent, Western blot; purified MOMP-tNLP; blot probed with mAb40; compared with a sample boiled 5 min in 50 mM DTT; both purified
substance,measurement,setting,value
Chlamydia muridarum major outer membrane protein (MOMP) (from UniProt P75024 1-387),binding,[1],binds
same,binding,[2],binds
